The values below come from paper PMC7862700.

The entries are a selection whose mix differs from that of the whole data set. At the low end of the ranking, values are background and their order means little.

The experiment addresses SPI1 (UniProt P17947). As to the kind of experiment: DAPPL (digital affinity profiling via proximity ligation, sequencing). The note with it: 10 mM Tris-HCl pH 7.5, 50 mM NaCl, 1 mM DTT, 4% glycerol, room temperature, 30 min; GST-TFs on glutathione beads, 16-mer random dsDNA library, 0.1% …; high values mean tight binding; double strand, one strand shown; scale: fold enrichment (6-mer frequency, TF over GST control).
CAAAAG showed a binding signal of 1.08.
Then GTCAAA, with 0.953; and CGTCAT, with 0.958.
As to GTACAC, the binding signal is 1.18.
Sequence CCTAAT gave a binding signal of 1.34.
Then CTACCC, with 1.31; and TTAGCC, with 0.958; and ACCCAT, with 1.17.
The result for AAACAG reads 1.13; that for AATGTG, 0.983; that for GCCACT, 1.17.
Then CTATGT, with 1.04; and TGATAA, with 1.05.
In turn, AAGGCT displayed a binding signal of 0.907.
The result for TTAGAG reads 0.899.
Sequence ACGGTA yielded a binding signal of 0.916.
Then AAGCCG, with 0.879; and CTAGAA, with 0.991; and ATGCCT, with 1.32.
With CTCGAA, the binding signal is 1.17.
As for ACACTC, the binding signal came to 1.09.
On to GGGCAT, for which the binding signal was 0.849.
Then TAGGAA, with 1.23; and AGAGAA, with 0.881.
Then TGTTAG, with 0.84; and TGTGAT, with 0.961; and TCGAAG, with 0.904.
For ACACGC, the binding signal stood at 0.969.
The result for GGTTAC reads 0.947; that for TCTCTT, 1.32.
Then AGGCAC, with 0.806; and GCAACC, with 0.979; and TTTCCC, with 1.69.
Then CACTCC, with 1.23; and GCGAAG, with 0.821; and CGAAGA, with 0.759.
With GTACTG, the binding signal is 1.04.
With CGAAGT, the binding signal came out at 0.883.
The result for CAACTA reads 1.28.
